The data set in a line: general procedure: Fmoc solid-phase peptide synthesis; 2-chlorotrityl resin; HBTU. Conditions: whole synthesis, calculated as tetrakis-trifluoroacetate salt.

This passage reports isolated yield results from patent US6258931 (dated 2001).

With Cys-Thr-Gly-deoxyhypusine-His-Gly, the isolated yield was 28%.
